In patent US20240060040A1, “METHODS FOR GENERATING INNER EAR HAIR CELLS” (Ear Science Institute Australia, priority 2020, published 2024):
Some of these results come from one statement about several compounds together. For at least one compound, name, drawing or mass did not settle the structure.

Tested on: Human iPSCs derived inner ear organoid
Experiment: Gross morphology / cellular re-organization of inner ear organoid aggregates at day 20-40
Format: cell-based
Settings: SHH inhibitor added days 18-32, Koehler method without inhibitor about 90-95%

SMILES: CN(C)c1ccccc1CN1CCCN(Cc2ccccc2N(C)C)C1c1ccncc1 [GANT61]
- efficiency of cellular re-organization (of aggregates): 95-100%
